Reference: PubChem BioAssay AID720504 (National Center for Advancing Translational Sciences (NCATS), 2013)
Among all 360,000 compounds or so, about 10,000 (2.8%) were called active. Inconclusive results, whose numbers are uncertain, are shown with a selection of clear calls. The call rests on the fitted dose curve; in most records, active means well fitted inhibition curve with a large enough effect; inconclusive means small, poorly fitted or top-dose-only effect; inactive means flat fitted curve, though single readings scatter. A potency beside an inconclusive call is a rough fit, not a confirmed value.

The chains behind the UniProt entries cited, without tags or fusion partners.
UniProt P53350, whole entry, looked up: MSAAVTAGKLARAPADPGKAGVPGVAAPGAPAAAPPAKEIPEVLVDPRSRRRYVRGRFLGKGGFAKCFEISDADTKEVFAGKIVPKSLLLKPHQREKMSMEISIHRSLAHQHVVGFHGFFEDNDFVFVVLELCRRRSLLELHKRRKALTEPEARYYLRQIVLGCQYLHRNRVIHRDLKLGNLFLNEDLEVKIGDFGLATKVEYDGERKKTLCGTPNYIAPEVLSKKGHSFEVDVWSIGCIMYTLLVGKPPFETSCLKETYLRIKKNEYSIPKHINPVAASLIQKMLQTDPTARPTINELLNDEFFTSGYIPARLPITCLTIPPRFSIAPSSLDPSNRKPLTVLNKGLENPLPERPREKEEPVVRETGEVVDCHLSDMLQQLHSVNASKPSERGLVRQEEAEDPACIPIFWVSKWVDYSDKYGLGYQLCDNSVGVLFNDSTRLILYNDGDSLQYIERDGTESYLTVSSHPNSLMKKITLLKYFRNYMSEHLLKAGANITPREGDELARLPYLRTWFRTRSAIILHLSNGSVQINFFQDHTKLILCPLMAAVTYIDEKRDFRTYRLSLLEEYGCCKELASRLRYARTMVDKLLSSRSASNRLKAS

target: Serine/threonine-protein kinase PLK1 (Homo sapiens) (UniProt P53350); assay: qHTS for Inhibitors of PLK1-PDB (polo-like kinase 1 - polo-box domain): Primary Screen; details: Plk1 PBD binding of FITC phosphopeptide, fluorescence polarization; further: nearly all actives have a fitted effect of over 65% in size; on max response, negative = inhibition: series mostly up to about 57 µM
On the % scale 0 is the no-effect control and ±100 the full control effect; potency means the concentration at half of the fitted maximal effect.

SMILES	Potency	max response, negative = inhibition
Cc1cc(SCC(=O)c2ccc(Cl)cc2)nc(=O)[nH]1	active: 23.8 µM	
CCOc1ccc(-c2cc(NC(=O)c3c(F)cccc3F)c(C(=O)O)s2)cc1	active: 33.6 µM	
CN(C)CCCOC(=O)c1ccc(Br)cc1		inactive: -0.585%
COC(=O)/C=C/COc1ccccc1[N+](=O)[O-]	active: 3.36 µM	
Cc1ccccc1-c1nc(S(=O)(=O)c2ccccc2)c(NCCN2CCOCC2)o1	inconclusive: 33.6 µM [inhibitor, partial curve]	
S=c1[nH]nc(CSCCOc2ccccc2)o1		inactive: -13.7%
O=C(COC(=O)COc1ccc(Cl)cc1)NCCCc1ccccc1	inconclusive: 33.6 µM [inhibitor, partial curve]	
COc1ccc(CCNC(=O)c2ccc3c(c2)N(Cc2ccc(F)cc2)CCS3)cc1OC	active: 29.9 µM	
Cc1ccccc1NC(=O)CSc1ccncc1		inactive: -3.47%
Cc1nn(-c2cccc(Cl)c2)c2nc(C(F)(F)F)[nH]c(=O)c12	inconclusive: 21.2 µM [inhibitor, single point]	
Cc1nnc(SCc2ccc([N+](=O)[O-])cc2)o1	active: 3.77 µM	
COC(=O)c1nc(N)sc1-c1ccccc1	inconclusive: 29.9 µM [inhibitor, single point]	
CSc1nc2c(c(=O)[nH]1)C(c1ccc(C(F)(F)F)cc1)CC(=O)N2 (centres undefined)		inconclusive: -33.2% [inhibitor]
O=C(CC1C(=O)NCCN1CC1CCCCC1)NCc1cc(F)ccc1F (centres undefined)	active: 3.77 µM	
Cc1ccc(Sc2c(C)[nH]n(C(C)(C)C)c2=O)cc1		inactive: -12.5%
CCN(CC)c1ccc2cc(C(=O)c3cccs3)c(=O)oc2c1	inconclusive: 37.7 µM [inhibitor, single point]	
C/C(=N\NC(=O)c1cc(-c2ccncc2)nc2ccccc12)c1ccc(N2CCOCC2)cc1	active: 29.9 µM	
O=c1c(CN2CCN(c3ccccn3)CC2)coc2ccccc12		inactive: -9.42%
CCNC(=O)/C(C#N)=C/c1c(N2CCN(c3ccc(OC)cc3)CC2)nc2c(C)cccn2c1=O	active: 23.8 µM	
COc1ccc(C(=O)NCc2cc(C)nc3ccccc23)cc1	inconclusive: 33.6 µM [inhibitor, single point]	
CC(C)CCn1c(SCCc2ccccc2)nc2c1c(=O)[nH]c(=O)n2C	inconclusive: 23.8 µM [inhibitor, partial curve]	
O=C(CC(C(=O)O)C1CCCO1)NCc1ccccc1 (centres undefined)	inconclusive: 26.7 µM [inhibitor, partial curve]	
CC(Sc1nc(NCc2ccccc2)nc(N(C)C)n1)C(=O)Nc1ccccc1 (centres undefined)		inactive: -2.33%
CC(C)n1c(CSCc2ccc(Cl)cc2Cl)n[nH]c1=S	inconclusive: 26.7 µM [inhibitor, partial curve]	
O=C(CN(C(=O)c1csnn1)c1cccc(Cl)c1)NC1CCCCC1	inconclusive: 37.7 µM [inhibitor, single point]	

SMILES	Potency	max response, negative = inhibition
O=C(C1CCN(CCCc2ccccc2)CC1)N(CCc1ccccc1)Cc1ccccc1		inactive: 1.41%
c1ccc(-c2ccc3c(c2)NCCN3)cc1		inactive: -15.8%
CC1CCN(c2c(NCc3ccc(C(=O)NCc4ccco4)cc3)c(=O)c2=O)CC1	inconclusive: 23.8 µM [inhibitor, single point]	
CCN(c1ccccc1)S(=O)(=O)c1cccc(C(=O)NCc2ccncc2)c1		inactive: -2.03%
O=C(NC(=S)Nc1ccc(CN2CCOCC2)cc1)c1cccc([N+](=O)[O-])c1		inactive: -19.4%
Cc1ccc(NC(=O)c2ccc3c(c2)CCN3S(C)(=O)=O)cc1C	active: 2.99 µM	
CCCOc1ccc(N2C(=O)CC(N3CCN(CCN=CC4=C(O)CC(C)(C)CC4=O)CC3)C2=O)cc1 (centres undefined)		inactive: -1.49%
O=c1/c(=C\c2cc([N+](=O)[O-])cc([N+](=O)[O-])c2O)sc2nc3ccccc3n12	inconclusive: 21.2 µM [inhibitor, single point]	
CCCOc1ccc(N2C(=O)CC(NCCCN3CCC(C(N)=O)CC3)C2=O)cc1 (centres undefined)		inactive: -6.95%
Cc1cc(NC(=O)C(Cl)c2ccccc2)no1 (centres undefined)		inactive: -10.8%
c1cc(-c2ccc(CN3CCOCC3)cc2)n2ccnc2c1		inactive: -10.6%
C=CCOc1ccc(C2/C(=C(\O)c3ccc4c(c3)OCCO4)C(=O)C(=O)N2CCCN2CCOCC2)cc1 (centres undefined)	inconclusive: 33.6 µM [inhibitor, partial curve]	
COc1cc(Nc2nc(-c3ccccc3)c3cc(C)ccc3n2)cc(OC)c1OC	inconclusive: 33.6 µM [inhibitor, single point]	
CC1CC/C(=N/Nc2ccccc2)C(=O)N1 (centres undefined)		inactive: -13.1%
Cc1cc(/C=C2\SC(=O)N(C)C2=O)c(C)n1-c1ccc(O)cc1		inactive: -15.5%
O=c1c(C(c2ccc(O)cc2)c2c(O)nc3n(c2=O)CCCS3)c(O)nc2n1CCCS2	active: 11.9 µM	
CCCc1c(C)nc2ccc(OC)cc2c1SCCC(=O)O	inconclusive: 23.8 µM [inhibitor, single point]	
CC(C)(C)OC1NS(=O)(=O)OCC1NCOC(Cl)(Cl)Cl (centres undefined)	inconclusive: 18.9 µM [inhibitor, partial curve]	
COc1ccccc1OCC(=O)Nc1ccc2c(c1)OCO2		inactive: -14.4%
CCCCCCn1c(CN2CCCC(C)C2)nc2c1c(=O)n(C)c(=O)n2C (centres undefined)	inconclusive: 5.97 µM [inhibitor, single point]	
O=C1NC(=O)C(c2cn(-c3ccccc3)nc2-c2ccc(F)cc2)N1 (centres undefined)	active: 5.32 µM	
Cc1cc(C(=O)COC(=O)c2cccnc2Cl)c(C)n1-c1c(C)n(C)n(-c2ccccc2)c1=O	inconclusive: 15 µM [inhibitor, partial curve]	
CCc1nc2c(OCC3COc4ccccc4O3)cccn2c1N(C)C(=O)c1ccc(OC)cc1 (centres undefined)		inactive: 8.31%
O=S(=O)(Nc1ccc(-c2cn3c(n2)SCC3)cc1)c1cccs1	inconclusive: 13.4 µM [inhibitor, partial curve]	

An excerpt of these results, bar-delimited.
SMILES | Potency | max response, negative = inhibition
Cc1cc(NC(=O)C(Cl)c2ccccc2)no1 (centres undefined) |  | inactive: -10.8%
c1cc(-c2ccc(CN3CCOCC3)cc2)n2ccnc2c1 |  | inactive: -10.6%
C=CCOc1ccc(C2/C(=C(\O)c3ccc4c(c3)OCCO4)C(=O)C(=O)N2CCCN2CCOCC2)cc1 (centres undefined) | inconclusive: 33.6 µM [inhibitor, partial curve] | 
